These results are taken from doi:10.1101/2021.06.14.448427 (bioRxiv, 2021).

The target of assay [1] is Cleaved CDCP1 ectodomain complex, Cut 3 (c-CDCP1 (Cut 3)) (human) (UniProt Q9H5V8). Description: SEC-MALS.
Assay [2] concerns the target Uncleaved CDCP1 ectodomain (fl-CDCP1) (human) (UniProt Q9H5V8). Kind of assay: SEC-MALS.

No constants are given. Whether binding was seen depends on the method and setting.

B1: Cleaved CDCP1 ectodomain complex, Cut 3 (c-CDCP1 (Cut 3)) (complex, UniProt Q9H5V8 30-369; Q9H5V8 370-665)
chain 1: FEIALPRESNITVLIKLGTPTLLAKPCYIVISKRHITMLSIKSGERIVFTFSCQSPENHFVIEIQKNIDCMSGPCPFGEVQLQPSTSLLPTLNRTFIWDVKAHKSIGLELQFSIPRLRQIGPGESCPDGVTHSISGRIDATVVRIGTFCSNGTVSRIKMQEGVKMALHLPWFHPRNVSGFSIANRSSIKRLCIIESVFEGEGSATLMSANYPEGFPEDELMTWQFVVPAHLRASVSFLNFNLSNCERKEERVEYYIPGSTTNPEVFKLEDKQPGNMAGNFNLSLQGCDQDAQSPGILRLQFQVLVQHPQNESNKIYVVDLSNERAMSLTIEPRPVKQSRK
chain 2: FVPGCFVCLESRTCSSNLTLTSGSKHKISFLCDDLTRLWMNVEKTISCTDHRYCQRKSYSLQVPSDILHLPVELHDFSWKLLVPKDRLSLVLVPAQKLQQHTHEKPCNTSFSYLVASAIPSQDLYFGSFCPGGSIKQIQVKQNISVTLRTFAPSFQQEASRQGLTVSFIPYFKEEGVFTVTPDTKSKVYLRTPNWDRGLPSLTSVSWNISVPRDQVACLTFFKERSGVVCQTGRAFMIIQEQRTRAEEIFSLDEDVLPKPSFHHHSFWVNISNCSPTSGKQLDLLFSVTLTPRTVD
As for B1, in assay [1], the binding result is given as “no binding (tested: ∼ 5 mg/ml injected)”.

B2: Uncleaved CDCP1 ectodomain (fl-CDCP1) (domain or fragment, UniProt Q9H5V8 30-667)
chain: FEIALPRESNITVLIKLGTPTLLAKPCYIVISKRHITMLSIKSGERIVFTFSCQSPENHFVIEIQKNIDCMSGPCPFGEVQLQPSTSLLPTLNRTFIWDVKAHKSIGLELQFSIPRLRQIGPGESCPDGVTHSISGRIDATVVRIGTFCSNGTVSRIKMQEGVKMALHLPWFHPRNVSGFSIANRSSIKRLCIIESVFEGEGSATLMSANYPEGFPEDELMTWQFVVPAHLRASVSFLNFNLSNCERKEERVEYYIPGSTTNPEVFKLEDKQPGNMAGNFNLSLQGCDQDAQSPGILRLQFQVLVQHPQNESNKIYVVDLSNERAMSLTIEPRPVKQSRKFVPGCFVCLESRTCSSNLTLTSGSKHKISFLCDDLTRLWMNVEKTISCTDHRYCQRKSYSLQVPSDILHLPVELHDFSWKLLVPKDRLSLVLVPAQKLQQHTHEKPCNTSFSYLVASAIPSQDLYFGSFCPGGSIKQIQVKQNISVTLRTFAPSFQQEASRQGLTVSFIPYFKEEGVFTVTPDTKSKVYLRTPNWDRGLPSLTSVSWNISVPRDQVACLTFFKERSGVVCQTGRAFMIIQEQRTRAEEIFSLDEDVLPKPSFHHHSFWVNISNCSPTSGKQLDLLFSVTLTPRTVDLT
As to B2, the binding entry in assay [2] is listed as “no binding (tested: ∼ 5 mg/ml injected)”.
